Data published in patent US20230220005A1, “S100A8-INHIBITING PEPTIDE AND DISEASE THERAPEUTIC AGENT CONTAINING SAME” (TOKYO WOMEN'S MEDICAL UNIVERSITY, priority 2020, published 2023).
These are yes or no findings as the source states them, for the method shown. Some binding calls cover weakened binding; strength is not graded here.

Amino acid sequences for entries named in this document (tags omitted). A change or cut given only in a name is not applied to a line headed by its entry.
UniProt O00206: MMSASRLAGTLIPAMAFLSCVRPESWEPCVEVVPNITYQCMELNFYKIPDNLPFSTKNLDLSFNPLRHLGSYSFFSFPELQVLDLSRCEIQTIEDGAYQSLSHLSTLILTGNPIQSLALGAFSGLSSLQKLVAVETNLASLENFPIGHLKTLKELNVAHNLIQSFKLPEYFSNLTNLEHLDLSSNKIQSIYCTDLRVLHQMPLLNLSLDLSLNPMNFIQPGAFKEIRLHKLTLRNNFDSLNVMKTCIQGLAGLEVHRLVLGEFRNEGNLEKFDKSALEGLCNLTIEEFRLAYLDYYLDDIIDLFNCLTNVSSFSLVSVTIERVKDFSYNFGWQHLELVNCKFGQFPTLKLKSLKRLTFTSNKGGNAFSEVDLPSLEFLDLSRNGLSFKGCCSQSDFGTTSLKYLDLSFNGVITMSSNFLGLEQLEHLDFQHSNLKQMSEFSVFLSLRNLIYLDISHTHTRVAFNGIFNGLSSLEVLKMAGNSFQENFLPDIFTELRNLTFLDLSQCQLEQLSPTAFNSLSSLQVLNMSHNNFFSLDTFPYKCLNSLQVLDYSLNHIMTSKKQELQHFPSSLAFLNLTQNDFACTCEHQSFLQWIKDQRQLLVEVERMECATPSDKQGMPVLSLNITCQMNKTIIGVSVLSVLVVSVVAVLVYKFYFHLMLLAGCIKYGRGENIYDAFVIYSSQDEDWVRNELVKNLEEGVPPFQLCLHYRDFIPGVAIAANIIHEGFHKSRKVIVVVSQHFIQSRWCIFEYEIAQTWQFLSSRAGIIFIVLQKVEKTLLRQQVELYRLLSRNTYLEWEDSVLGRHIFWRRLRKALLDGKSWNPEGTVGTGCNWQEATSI
UniProt Q9Y6Y9: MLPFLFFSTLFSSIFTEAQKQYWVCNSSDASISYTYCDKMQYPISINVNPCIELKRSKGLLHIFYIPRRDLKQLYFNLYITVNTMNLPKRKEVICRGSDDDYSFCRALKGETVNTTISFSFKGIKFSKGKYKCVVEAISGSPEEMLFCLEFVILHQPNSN

molecular target: T1, TLR4/MD-2 (Homo sapiens, UniProt O00206+Q9Y6Y9); assay: ELISA, peptide immobilized, alanine scanning

Row | binding | Binder
1 | binds | FQEFLALVIK (acetylation at the amino terminus; amidation at the carboxyl terminus) [Peptide3A6]
2 | binds | FQEFAILVIK (acetylation at the amino terminus; amidation at the carboxyl terminus) [Peptide3A5]
3 | binds | FQEFLIAVIK (acetylation at the amino terminus; amidation at the carboxyl terminus) [Peptide3A7]
4 | binds | FQEFLILVIA (acetylation at the amino terminus; amidation at the carboxyl terminus) [Peptide3A10]
5 | binds | FQEFLILAIK (acetylation at the amino terminus; amidation at the carboxyl terminus) [Peptide3A8]

molecular target: T1, TLR4/MD-2; assay: divalent peptide sheet binding (FIG. 7A) and competition assay (FIG. 7B)

Row | binding | Binder
6 | binds | QEFAILV [SEQ ID NO 4]
7 | binds | FQEFAILVI [SEQ ID NO 3]

molecular target: T1, TLR4/MD-2; assay: ELISA, peptide immobilized, TLR4/MD-2 detected with anti-TLR4 antibody, OD 450 nm

Row | binding | Binder
8 | binds | FQEFLILVIK [Peptide #3]

molecular target: T1, TLR4/MD-2; assay: divalent peptides spot-synthesized on a cellulose membrane sheet, reacted with TLR4/MD-2

Row | Binder | binding
9 | QEFAILV [SEQ ID NO 4] | binds
10 | FQEFAILVI [SEQ ID NO 3] | binds
11 | EFAILV [SEQ ID NO 6] | binds
12 | EFAILVI [SEQ ID NO 5] | binds
13 | FAILVI [SEQ ID NO 7] | binds

The remaining lines, values ahead:

Row | binding | Binder
14 | binds | AILVI [SEQ ID NO 9]
15 | binds | QEFAILVI [SEQ ID NO 12]
16 | binds | FQEFAILV [SEQ ID NO 11]
17 | binds | FAILV [SEQ ID NO 8]
18 | binds | AILVIK [SEQ ID NO 10]
19 | binds | FQEFAILVIK [divalent Peptide3A5]
